Experimental data reported in paper PMC5380967.
These are yes or no findings as the source states them, for the method shown. A result given as binding can be weak or reduced; the word gives no strength. Tags and fused reporters may be left off the sequences shown.

Biological target: GST-tagged CEP131 N-terminal region (human)
Assay: pull-down; GST-tagged CEP131 (full length or deletion mutants) purified from bacteria with His-tagged USP9X deletion mutants purified from Sf9 cells; which was held on beads is not stated; both purified

B1: His-tagged USP9X/M (domain or fragment, UniProt Q93008 611-1553)
chain: ALVTLVAENLATYMESMRLYARDHEDYDPQTVRLGSRYSHVQEVQERLNFLRFLLKDGQLWLCAPQAKQIWKCLAENAVYLCDREACFKWYSKLMGDEPDLDPDINKDFFESNVLQLDPSLLTENGMKCFERFFKAVNCREGKLVAKRRAYMMDDLELIGLDYLWRVVIQSNDDIASRAIDLLKEIYTNLGPRLQVNQVVIHEDFIQSCFDRLKASYDTLCVLDGDKDSVNCARQEAVRMVRVLTVLREYINECDSDYHEERTILPMSRAFRGKHLSFVVRFPNQGRQVDDLEVWSHTNDTIGSVRRCILNRIKANVAHTKIELFVGGELIDPADDRKLIGQLNLKDKSLITAKLTQISSNMPSSPDSSSDSSTGSPGNHGNHYSDGPNPEVESCLPGVIMSLHPRYISFLWQVADLGSSLNMPPLRDGARVLMKLMPPDSTTIEKLRAICLDHAKLGESSLSPSLDSLFFGPSASQVLYLTEVVYALLMPAGAPLADDSSDFQFHFLKSGGLPLVLSMLTRNNFLPNADMETRRGAYLNALKIAKLLLTAIGYGHVRAVAEACQPGVEGVNPMTQINQVTHDQAVVLQSALQSIPNPSSECMLRNVSVRLAQQISDEASRYMPDICVIRAIQKIIWASGCGSLQLVFSPNEEITKIYEKTNAGNEPDLEDEQVCCEALEVMTLCFALIPTALDALSKEKAWQTFIIDLLLHCHSKTVRQVAQEQFFLMCTRCCMGHRPLLFFITLLFTVLGSTARERAKHSGDYFTLLRHLLNYAYNSNINVPNAEVLLNNEIDWLKRIRDDVKRTGETGIEETILEGHLGVTKELLAFQTSEKKFHIGCEKGGANLIKELIDDFIFPASNVYLQYMRNGELPAEQAIPVCGSPPTINAGFELLVALAVGCVRNLKQIVDSLTEMYYIGTAITTCEALTEWEYLPPVGPRPP
binding: binds
